These results are taken from PMC5797029.

Protein sequences, listed by entry. Tags and fused reporters are not part of them. Lines headed by an entry give the natural chain unless they say otherwise; changes in a name come on top. Residues count along the entry.
UniProt Q99081: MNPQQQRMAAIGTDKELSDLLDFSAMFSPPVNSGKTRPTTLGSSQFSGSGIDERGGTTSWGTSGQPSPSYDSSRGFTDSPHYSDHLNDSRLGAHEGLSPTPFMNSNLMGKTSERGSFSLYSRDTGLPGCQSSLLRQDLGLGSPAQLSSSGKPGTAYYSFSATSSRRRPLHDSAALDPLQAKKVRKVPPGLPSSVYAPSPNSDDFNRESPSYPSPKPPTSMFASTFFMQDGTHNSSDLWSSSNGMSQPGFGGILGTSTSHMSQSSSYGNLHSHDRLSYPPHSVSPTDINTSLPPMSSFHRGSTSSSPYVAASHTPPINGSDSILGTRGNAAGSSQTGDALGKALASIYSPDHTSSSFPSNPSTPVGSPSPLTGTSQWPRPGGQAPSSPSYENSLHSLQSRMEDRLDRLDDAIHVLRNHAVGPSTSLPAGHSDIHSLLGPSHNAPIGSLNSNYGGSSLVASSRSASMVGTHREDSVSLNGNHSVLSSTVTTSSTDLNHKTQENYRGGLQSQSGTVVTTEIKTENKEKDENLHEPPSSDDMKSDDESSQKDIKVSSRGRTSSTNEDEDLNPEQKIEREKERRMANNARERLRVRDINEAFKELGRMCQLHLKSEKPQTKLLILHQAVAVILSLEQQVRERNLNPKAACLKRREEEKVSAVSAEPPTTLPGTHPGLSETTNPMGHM
UniProt P16070, residues 21-742: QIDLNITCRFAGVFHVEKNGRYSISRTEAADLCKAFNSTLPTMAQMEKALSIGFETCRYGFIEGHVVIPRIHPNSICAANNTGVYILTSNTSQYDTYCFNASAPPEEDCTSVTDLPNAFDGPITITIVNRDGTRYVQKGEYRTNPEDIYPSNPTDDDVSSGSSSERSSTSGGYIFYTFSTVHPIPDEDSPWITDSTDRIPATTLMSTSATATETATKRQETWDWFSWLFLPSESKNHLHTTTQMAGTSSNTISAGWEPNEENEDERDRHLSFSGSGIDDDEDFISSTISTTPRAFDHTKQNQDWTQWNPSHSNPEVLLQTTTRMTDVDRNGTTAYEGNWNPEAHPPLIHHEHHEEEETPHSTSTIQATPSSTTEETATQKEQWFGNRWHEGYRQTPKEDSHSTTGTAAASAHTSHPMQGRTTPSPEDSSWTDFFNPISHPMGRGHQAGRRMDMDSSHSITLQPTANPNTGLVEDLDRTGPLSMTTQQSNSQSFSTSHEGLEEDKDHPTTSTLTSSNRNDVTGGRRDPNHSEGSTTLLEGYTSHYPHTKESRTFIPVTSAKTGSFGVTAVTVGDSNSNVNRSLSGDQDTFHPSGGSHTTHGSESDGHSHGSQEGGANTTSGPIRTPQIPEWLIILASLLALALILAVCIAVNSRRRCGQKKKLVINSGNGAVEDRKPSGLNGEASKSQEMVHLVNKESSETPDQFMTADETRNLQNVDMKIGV
UniProt P06756: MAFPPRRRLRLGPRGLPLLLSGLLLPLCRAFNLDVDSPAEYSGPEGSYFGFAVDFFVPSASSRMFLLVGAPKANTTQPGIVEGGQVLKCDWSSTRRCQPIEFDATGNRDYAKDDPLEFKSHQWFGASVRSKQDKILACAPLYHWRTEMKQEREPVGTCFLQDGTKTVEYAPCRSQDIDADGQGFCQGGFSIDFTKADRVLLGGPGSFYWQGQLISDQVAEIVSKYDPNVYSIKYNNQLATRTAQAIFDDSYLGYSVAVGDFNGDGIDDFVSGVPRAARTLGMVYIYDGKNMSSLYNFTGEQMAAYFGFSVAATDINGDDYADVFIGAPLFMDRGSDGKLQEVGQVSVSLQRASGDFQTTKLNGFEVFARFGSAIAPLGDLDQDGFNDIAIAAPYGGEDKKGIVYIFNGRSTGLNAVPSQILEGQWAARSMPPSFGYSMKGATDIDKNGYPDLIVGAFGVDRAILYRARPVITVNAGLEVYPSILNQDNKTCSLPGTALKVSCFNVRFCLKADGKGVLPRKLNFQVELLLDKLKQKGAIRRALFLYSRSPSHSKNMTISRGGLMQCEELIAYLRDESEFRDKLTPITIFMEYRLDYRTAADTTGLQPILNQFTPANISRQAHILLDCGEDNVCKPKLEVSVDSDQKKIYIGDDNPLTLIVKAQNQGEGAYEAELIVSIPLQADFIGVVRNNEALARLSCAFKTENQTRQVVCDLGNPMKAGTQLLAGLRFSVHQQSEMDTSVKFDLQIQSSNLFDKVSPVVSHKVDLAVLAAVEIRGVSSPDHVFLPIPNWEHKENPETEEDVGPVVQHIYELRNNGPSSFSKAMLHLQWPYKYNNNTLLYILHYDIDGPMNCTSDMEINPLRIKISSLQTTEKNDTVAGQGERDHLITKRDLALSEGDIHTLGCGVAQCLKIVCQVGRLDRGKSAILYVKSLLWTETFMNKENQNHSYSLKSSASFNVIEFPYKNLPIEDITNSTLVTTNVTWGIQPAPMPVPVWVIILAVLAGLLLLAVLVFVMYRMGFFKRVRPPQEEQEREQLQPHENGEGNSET
UniProt P05106: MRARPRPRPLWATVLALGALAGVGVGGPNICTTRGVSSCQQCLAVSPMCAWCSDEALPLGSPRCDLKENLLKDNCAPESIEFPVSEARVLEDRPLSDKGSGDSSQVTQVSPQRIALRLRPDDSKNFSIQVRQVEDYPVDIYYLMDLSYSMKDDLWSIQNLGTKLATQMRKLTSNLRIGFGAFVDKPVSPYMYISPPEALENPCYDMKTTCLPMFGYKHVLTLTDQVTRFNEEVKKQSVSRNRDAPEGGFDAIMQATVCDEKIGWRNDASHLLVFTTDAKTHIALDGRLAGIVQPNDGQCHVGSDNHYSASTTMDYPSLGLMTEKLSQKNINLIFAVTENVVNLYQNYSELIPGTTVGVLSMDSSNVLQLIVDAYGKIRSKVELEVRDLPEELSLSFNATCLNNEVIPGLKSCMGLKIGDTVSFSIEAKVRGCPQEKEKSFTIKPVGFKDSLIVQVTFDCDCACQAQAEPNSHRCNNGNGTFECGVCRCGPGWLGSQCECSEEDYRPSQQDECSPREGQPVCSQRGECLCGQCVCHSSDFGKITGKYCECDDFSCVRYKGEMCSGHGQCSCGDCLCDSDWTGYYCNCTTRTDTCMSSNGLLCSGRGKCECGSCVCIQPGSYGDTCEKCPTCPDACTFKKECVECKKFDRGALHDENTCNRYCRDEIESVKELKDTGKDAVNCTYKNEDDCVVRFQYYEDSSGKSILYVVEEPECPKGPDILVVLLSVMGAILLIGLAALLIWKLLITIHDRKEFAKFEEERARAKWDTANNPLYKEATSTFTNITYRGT
UniProt P35226: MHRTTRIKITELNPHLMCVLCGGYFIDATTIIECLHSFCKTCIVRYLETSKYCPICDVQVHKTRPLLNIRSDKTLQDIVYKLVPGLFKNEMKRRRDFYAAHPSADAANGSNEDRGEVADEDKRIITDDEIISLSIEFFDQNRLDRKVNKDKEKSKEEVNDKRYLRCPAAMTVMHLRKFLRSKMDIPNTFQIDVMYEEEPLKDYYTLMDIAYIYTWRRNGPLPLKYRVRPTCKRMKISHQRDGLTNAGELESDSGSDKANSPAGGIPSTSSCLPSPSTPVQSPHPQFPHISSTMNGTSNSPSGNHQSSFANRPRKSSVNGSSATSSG
UniProt Q13547: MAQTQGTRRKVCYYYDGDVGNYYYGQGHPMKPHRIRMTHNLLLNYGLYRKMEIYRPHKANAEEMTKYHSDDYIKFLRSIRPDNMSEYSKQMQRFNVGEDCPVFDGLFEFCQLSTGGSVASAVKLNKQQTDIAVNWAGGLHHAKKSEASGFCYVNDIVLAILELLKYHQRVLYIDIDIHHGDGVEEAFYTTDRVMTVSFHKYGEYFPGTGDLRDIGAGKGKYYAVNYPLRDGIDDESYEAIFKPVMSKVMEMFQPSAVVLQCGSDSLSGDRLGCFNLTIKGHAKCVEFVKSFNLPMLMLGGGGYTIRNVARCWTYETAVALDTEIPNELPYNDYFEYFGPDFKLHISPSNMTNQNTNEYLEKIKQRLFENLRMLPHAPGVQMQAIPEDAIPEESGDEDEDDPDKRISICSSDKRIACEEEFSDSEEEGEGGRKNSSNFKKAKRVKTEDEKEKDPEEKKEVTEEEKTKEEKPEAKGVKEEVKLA
UniProt Q92769: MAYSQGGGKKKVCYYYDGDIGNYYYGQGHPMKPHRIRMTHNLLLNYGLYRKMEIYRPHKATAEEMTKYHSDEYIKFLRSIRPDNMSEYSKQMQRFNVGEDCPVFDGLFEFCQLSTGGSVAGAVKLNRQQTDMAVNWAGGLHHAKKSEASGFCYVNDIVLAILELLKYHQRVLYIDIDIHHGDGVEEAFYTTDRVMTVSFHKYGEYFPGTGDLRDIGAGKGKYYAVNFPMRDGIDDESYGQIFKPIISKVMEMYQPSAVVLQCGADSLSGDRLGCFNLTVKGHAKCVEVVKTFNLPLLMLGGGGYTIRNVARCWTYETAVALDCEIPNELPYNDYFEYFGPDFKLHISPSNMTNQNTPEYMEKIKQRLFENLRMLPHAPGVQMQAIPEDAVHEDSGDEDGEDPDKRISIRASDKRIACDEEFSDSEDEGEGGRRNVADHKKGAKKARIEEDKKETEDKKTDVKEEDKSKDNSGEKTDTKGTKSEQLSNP
UniProt O15379: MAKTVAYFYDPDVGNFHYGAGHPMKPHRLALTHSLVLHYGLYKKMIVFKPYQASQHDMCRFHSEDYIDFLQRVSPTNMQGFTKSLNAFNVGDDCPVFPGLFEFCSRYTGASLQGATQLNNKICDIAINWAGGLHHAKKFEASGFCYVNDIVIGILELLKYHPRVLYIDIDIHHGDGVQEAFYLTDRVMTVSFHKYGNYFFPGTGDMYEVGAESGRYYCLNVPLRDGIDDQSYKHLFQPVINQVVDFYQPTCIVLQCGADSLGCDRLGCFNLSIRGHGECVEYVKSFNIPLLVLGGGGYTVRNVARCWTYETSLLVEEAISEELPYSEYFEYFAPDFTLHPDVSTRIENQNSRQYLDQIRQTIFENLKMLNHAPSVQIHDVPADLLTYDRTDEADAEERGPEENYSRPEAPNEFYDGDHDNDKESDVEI
UniProt P10451, residues 17-314: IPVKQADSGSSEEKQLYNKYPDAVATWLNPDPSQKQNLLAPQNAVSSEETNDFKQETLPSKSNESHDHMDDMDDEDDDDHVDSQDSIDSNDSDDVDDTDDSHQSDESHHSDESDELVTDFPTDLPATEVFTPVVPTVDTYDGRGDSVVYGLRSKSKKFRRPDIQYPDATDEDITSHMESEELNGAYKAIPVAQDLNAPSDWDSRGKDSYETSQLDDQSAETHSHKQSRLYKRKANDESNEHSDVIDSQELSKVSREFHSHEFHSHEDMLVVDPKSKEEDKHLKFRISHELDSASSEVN

Assay [1] deals with TCF12 (human (endogenous in HUVECs)) (UniProt Q99081). Description: co-IP; 500 ug of nuclear extracts of HUVECs treated 24 h with PBS or 0.3 ug/ml OPN; overnight at 4°C with 10 ug control IgG or anti-TCF12 antibody, protein A/G-Sepharose, immunoblot. In general terms: Immunoblotting shows a protein as a band on a membrane.
The target in assay [2] is CD44 (human (endogenous in HUVECs)) (UniProt P16070). As to the kind of experiment: proximity ligation; HUVECs treated 45 min with PBS or 0.3 ug/ml OPN, fixed; anti-OPN with anti-integrin αVβ3 or anti-CD44 antibody, Duolink in situ PLA kit; only the binder purified.
In assay [3] the target is integrin αVβ3 (human (endogenous in HUVECs)) (UniProt P06756+P05106). The description is as above.

These are yes or no findings as the source states them, for the method shown. Binding seen in cells or lysates may run through a third protein. Some results given as binding are weak or reduced against the parent protein; the word gives no strength.

For Bmi1 (from UniProt P35226 1-326), the binding entry in assay [1] is “binds”.

Turning to “HDAC1 (from UniProt Q13547 1-482) (enzyme)”, the binding entry in assay [1] is “binds”.

In the case of “HDAC2 (from UniProt Q92769 1-488) (enzyme)”, the binding entry in assay [1] was “binds”.

Turning to “HDAC3 (from UniProt O15379 1-428) (enzyme)”, the binding result in assay [1] was “binds”.

In the case of “Osteopontin (from UniProt P10451 17-314) (ligand)”, the binding result in assay [2] and in assay [3] was “binds” each time.
